Cell number change and AC50 data for 55 compounds are collected here from PubChem BioAssay AID2685 (National Center for Advancing Translational Sciences (NCATS), 2010).

The experiment can be described thus: qHTS Assay for Lipid Storage Modulators in Drosophila S3 Cells.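 For Cell number change: cells counted by Cell Tracker Red CMTPX staining in the red channel.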 The conditions noted are these: BODIPY lipid droplet fluorescence, 18-24 h; for cell number change: measured here: cell count max response, cells fed with added oleic acid. The gist of the method: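 Drosophila S3 cells loaded with oleic acid (400 uM, as added) and compounds at several concentrations; lipid droplets imaged by 488-nm laser-scanning cytometry, 500–530 nm intensity and object ratio to cell channel. Percent activity normalized to 20 uM Triacsin C.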

Where [1] appears, read: measured here: cell number channel AC50, cells fed with added oleic acid.
Where [2] appears, read: measured here: lipid fluorescence (Fed channel) AC50, cells fed with added oleic acid.

The structures appear in SMILES notation. The list shows a part of the results. Shown are side measurements of this screen, not its main read-out; they come without a call. The list favours compounds with an active or inconclusive main result. Words in brackets tell the shape of the fitted curve; partial curves, single points and poor fits give uncertain potencies.

Take `Cc1c(NS(=O)(=O)c2ccc(N3CCN(C)CC3)c([N+](=O)[O-])c2)c(=O)n(-c2ccccc2)n1C`: the cell number change was -49.3%. For the same compound, the AC50 under setting [1] is 3260 nM [falling, partial curve]. The AC50 under setting [2] is 2060 nM [falling, partial curve].
As for `Cc1[nH]c2ccc(C(=O)OCCN(C)C)cc2c1C`, under setting [1], the AC50 was 1640 nM [rising, partial curve].
Consider `O=C(Cc1ccccc1)N1CCN(c2ncccn2)CC1`, for which the cell number change amounted to 0.371%. In addition, the AC50 under setting [2] is 2910 nM [rising, single point].
On to `OCC1(Cc2ccccc2)CCCN(Cc2ccn[nH]2)C1` (configuration not stated), for which the cell number change stood at 8.28%.
In the case of `O=c1oc(-c2ccco2)nc2c1cnn2-c1ccccc1`, the cell number change turned out to be 131%. Further, under setting [1], the half-maximal activity concentration (AC50) is 580 nM [rising, single point]. Besides, under setting [2], the AC50 was 580 nM [rising, single point].
For the compound `COc1cccc(NC(=O)COC(=O)c2c(C)nn(-c3ccccc3)c2C)c1`, the cell number change worked out at 16.2%. Moreover, the AC50 under setting [2] is 92 nM [rising, full curve, poor fit].
In the case of `COc1cc(C(=O)OCC(=O)NC2CCCCC2)cc2c1OCCO2`, the cell number change amounted to 6.49%. Also, under setting [2], the AC50 was 20600 nM [rising, single point].
As for `CC(C)COc1ccc(C(=O)OCCN2CCOCC2)cc1`, the cell number change is -10.5%. The AC50 under setting [2] was 1640 nM [rising, full curve].
On to `CNC(=O)c1cn(-c2ccc(Cl)cc2)c(=O)c2ccccc12`, for which the cell number change is -30%. The half-maximal activity concentration (AC50) under setting [1] is 164 nM [falling, full curve, poor fit]. Further, the AC50 under setting [2] is 366 nM [falling, partial curve, poor fit].
On to `COC(=O)[C@H]1C2CCC(C(=O)OC)(CC2)[C@H]1C(=O)OC`, for which the AC50 under setting [2] was 130 nM [falling, full curve, poor fit].
Regarding `Cc1cc(NC(=O)CCN2CC(C)OC(C)C2)ccc1Br` (configuration not stated), the cell number change was -22.8%. For the same compound, the AC50 under setting [2] is 6510 nM [rising, single point].
In the case of `COc1cccc(NC(=O)C2CC(=O)N(C)C(=Nc3cccc(F)c3)S2)c1` (configuration not stated), the cell number change was -1.64%.
On the same count and under the same terms, the same measure for `CCOC(=O)c1c(NC(=O)CSc2ncn[nH]2)sc(C(C)=O)c1C`: 17%.
In the case of `COc1ccccc1NC(=O)CSc1nccn1Cc1ccc(F)cc1`, the cell number change came to 30.1%. Besides, under setting [1], the AC50 was 11600 nM [rising, single point]. Besides, the AC50 under setting [2] was 7310 nM [rising, partial curve].
Regarding `O=C(NCc1cc(C(F)(F)F)cc(C(F)(F)F)c1)C1CC(c2ccccc2C(F)(F)F)=NO1` (configuration not stated), the cell number change is -18%. Further, under setting [2], the half-maximal activity concentration (AC50) was 29100 nM [falling, partial curve, poor fit].
Regarding `O=C(/C=C/c1ccccc1Cl)N(Cc1cccs1)C1CCS(=O)(=O)C1` (configuration not stated), the cell number change was determined as 19.1%.
In the case of `CC(C)c1ccc(S(=O)(=O)c2cn(Cc3ccc(F)cc3)c3cc4c(cc3c2=O)OCO4)cc1`, the AC50 is 1640 nM [falling, partial curve] under setting [1] and 1840 nM [rising, partial curve, poor fit] under setting [2].
On to `CCOc1ccc(NC(=O)COc2ccc(C(=O)N3CCC(C(N)=O)CC3)cc2OC)cc1`, for which the cell number change is 3.85%. The AC50 under setting [2] was 580 nM [rising, full curve].
As to `CC(=O)NCCC(=O)Nc1nc2ccc(Oc3ccccc3)cc2s1`, the cell number change came to 12.2%. The AC50 under setting [2] is 29100 nM [falling, partial curve, poor fit].
Turning to `Cc1nn(CCCC(=O)Nc2sc3c(c2C#N)CCC3)c(C)c1[N+](=O)[O-]`, the AC50 under setting [1] was 146 nM [rising, single point] and the AC50 under setting [2] was 651 nM [rising, partial curve, poor fit].
In the case of `O=C(N/C(=N\O)c1ccccc1)Nc1ccc(Cl)cc1`, the cell number change is 129%. Further, the AC50 under setting [1] is 6510 nM [rising, partial curve]. The AC50 under setting [2] was 29100 nM [rising, single point].
Turning to `Cc1cc(C)cc(C(=O)Oc2coc(CSc3nnc(NC(=O)C4CC4)s3)cc2=O)c1`, the cell number change was 4.3%.
For `COc1cccc(OCC(=O)Nc2cc(NC(=O)COc3cccc(OC)c3)cc(C(=O)O)c2)c1`, the cell number change was 6.93%. In addition, under setting [2], the AC50 is 4610 nM [rising, partial curve].
Turning to `COc1ccc(C(=O)NCc2nnc(SCC(=O)N3CCCCC3)o2)cc1OC`, the half-maximal activity concentration (AC50) reads like this: under setting [1], 4110 nM [rising, partial curve, poor fit]; under setting [2], 2910 nM [rising, partial curve].
`COc1ccc(CCN2C(=O)N(c3ccc(OC)cc3)C(=O)C2CC(=O)Nc2ccc(OC)cc2)cc1` (configuration not stated): the cell number change came out at 17.1%.
Regarding `O=C(CSc1ccc2nnc(-c3ccncc3)n2n1)NCc1ccco1`, under setting [2], the AC50 was 2910 nM [rising, partial curve].
With `O=C(c1ccc(Cl)c([N+](=O)[O-])c1)N1CCN(c2ccccn2)CC1`, the cell number change stood at 34%. Also, the AC50 under setting [1] was 16400 nM [rising, single point]. Under setting [2], the AC50 is 29100 nM [rising, single point].
For `COc1ccc(Cl)cc1NC(=O)CSc1nncn1-c1cccnc1`, the cell number change is 7.85%. Besides, the AC50 under setting [1] is 2910 nM [rising, partial curve]. The AC50 under setting [2] was 2590 nM [rising, partial curve].
Regarding `CSc1ncc(Cl)c(C(=O)Nc2ccc(S(=O)(=O)N3CCOCC3)cc2)n1`, the cell number change is -30.8%. The AC50 under setting [2] is 4.61 nM [rising, full curve, poor fit].
As to `O=[N+]([O-])c1cccc(-c2cc(-c3cc(Br)ccc3O)[nH]n2)c1`, the cell number change was determined as 10.9%. Also, the AC50 under setting [1] is 5.17 nM [rising, full curve, poor fit]. Moreover, the AC50 under setting [2] is 5.17 nM [rising, full curve, poor fit].
Consider `CSCCC(NS(=O)(=O)c1ccc(C)cc1)C(=O)N1CCN(S(=O)(=O)c2ccc(F)cc2)CC1` (configuration not stated), for which the cell number change was -25%. For the same compound, the AC50 under setting [1] was 820 nM [falling, full curve, poor fit]. In addition, the AC50 under setting [2] is 13000 nM [falling, partial curve].
As to `COC(=O)C1=C(C)OC(N)=C(C#N)C1c1ccc(OC)c(CSc2ccccn2)c1` (configuration not stated), the AC50 under setting [1] was 2910 nM [rising, single point] and the concentration at half-maximal activity (AC50) under setting [2] was 920 nM [rising, partial curve, poor fit].
On to `CCOC(=O)c1sc(C)c(C(N)=O)c1NC1=NCCCCC1`, for which the cell number change is -2.52%.
For the compound `Cc1ccc(C)c(N2CCN(C(=O)c3ccc(CS(=O)(=O)c4ccccc4C)o3)CC2)c1`, the cell number change was determined as 67.8%. For the same compound, under setting [1], the AC50 is 2310 nM [rising, full curve]. For the same compound, under setting [2], the AC50 was 3260 nM [rising, partial curve].
For `CCC1CCc2sc(C(=O)OCC(=O)N(CCOC)c3c(N)n(Cc4ccccc4)c(=O)[nH]c3=O)cc2C1` (configuration not stated), the AC50 under setting [2] was 6.51 nM [falling, full curve, poor fit].
Regarding `O=C(NC(C1CC1)C1CC1)C1CCC(=O)N(CCCN2CCCC2=O)C1` (configuration not stated), the cell number change worked out at 10.3%.
In the case of `C=C(C)COc1ccc(-c2n[nH]c(C)c2Oc2ccccc2OC)c(O)c1`, the cell number change is -95.1%. The AC50 under setting [1] is 18400 nM [falling, single point]. In addition, under setting [2], the AC50 was 29100 nM [falling, single point].
As for `Cc1ccc(-c2cc(C(=O)Nc3nn[nH]n3)c3ccccc3n2)cc1`, the cell number change was -9.24%. The AC50 under setting [2] is 291 nM [rising, full curve, poor fit].
For the compound `CCOC(=O)N1CCN(C(=O)COc2ccc3oc4c(c3c2)CCCC4)CC1`, the cell number change was found to be 40.2%. In addition, the AC50 under setting [1] is 4610 nM [rising, partial curve].
For `CC1(C)OC(=O)C(=CNCC(O)c2ccccc2)C(=O)O1` (configuration not stated), the cell number change was found to be 105%. Also, the AC50 under setting [1] was 29100 nM [rising, single point].
Take `O=C(O)c1cccc(CN2C(=O)S/C(=C/c3ccccc3[N+](=O)[O-])C2=O)c1`: the cell number change was -2.67%. Moreover, under setting [1], the AC50 was 116 nM [falling, full curve, poor fit]. Also, under setting [2], the AC50 is 2060 nM [falling, partial curve].
On to `N#Cc1ccc(COC(=O)CN2C(=O)NC3(CCCC3)C2=O)cc1`, for which the cell number change is -29%. The AC50 under setting [1] is 731 nM [falling, full curve, poor fit].
`N#CCSc1nnc(-c2c[nH]c3ccccc23)o1`: the cell number change is 1.62%. For the same compound, the AC50 under setting [2] is 6510 nM [rising, single point].
With `COc1ccccc1/C=C\C(=O)NCC(=O)N/N=C/c1cccc(OC)c1O`, the cell number change was found to be 21.5%.
Regarding `Cc1cccc(C)c1OCc1cc(C(=O)N2CCN(c3ccccn3)CC2)no1`, the cell number change is 7.37%. Besides, under setting [1], the AC50 was 206 nM [rising, full curve, poor fit]. For the same compound, the AC50 under setting [2] was 6510 nM [rising, partial curve, poor fit].
`CCc1cc2cc(C(=O)Nc3ccc(C)cc3)sc2s1`: the cell number change is -37.3%. The concentration at half-maximal activity (AC50) under setting [1] is 11600 nM [falling, partial curve]. Besides, under setting [2], the AC50 was 13000 nM [falling, partial curve].
`CCN(CC)CCNC(=O)c1ccc(NC(=O)Cc2ccsc2)cc1`: the cell number change was 23.2%. Also, the AC50 under setting [2] was 29100 nM [rising, single point].
As to `Cc1ccc(-n2c(CNc3ccc(F)cc3)nnc2SCC(N)=O)cc1`, the cell number change was -28.7%. For the same compound, the AC50 under setting [2] was 46.1 nM [falling, full curve].
In the case of `COC(=O)c1sccc1NC(=O)c1ccccc1F`, the cell number change came out at 8.62%. Further, the concentration at half-maximal activity (AC50) under setting [2] was 920 nM [rising, full curve].
As to `COc1ccc(CC(=O)NCc2nnc(SCC(=O)Nc3ccc(OC)cc3)n2C)cc1`, the cell number change is 5.49%.
As to `CN1CCN(S(=O)(=O)c2ccc(NN)nc2)CC1`, the cell number change was -32.3%. Moreover, the AC50 under setting [1] was 731 nM [falling, partial curve, poor fit]. For the same compound, the AC50 under setting [2] is 731 nM [falling, partial curve].
Take `COc1cccc(C(=O)Oc2ccc3ccc(O)cc3c2)c1`: the cell number change was -32.8%. Besides, the AC50 under setting [1] was 32600 nM [falling, single point]. The half-maximal activity concentration (AC50) under setting [2] is 29100 nM [falling, single point].
Consider `NS(=O)(=O)c1ccc(CCNC(=O)C2CCCN(S(=O)(=O)c3cccnc3)C2)cc1` (configuration not stated), for which the cell number change came out at 1.1%. Besides, the AC50 under setting [1] was 4110 nM [falling, single point]. Also, the concentration at half-maximal activity (AC50) under setting [2] is 184 nM [falling, full curve, poor fit].
As to `Cc1ccccc1CC(=O)N1CCN(C(=O)c2ccco2)CC1`, the cell number change is -3.04%. For the same compound, the AC50 under setting [2] was 29100 nM [rising, single point].
Take `COc1ccc(-n2ncc3c(N4CCN(Cc5ccccc5)CC4)ncnc32)cc1`: the cell number change was -4.63%.
